Test results: patent publication US10646600B2, “HER2 polypeptides useful for imaging and monitoring tumors and cancers” (GE HEALTHCARE LIMITED, priority 2013, dated 2020)

Tested on: rhesus HER2
Assay: Surface Plasmon Resonance, rhesus HER2-ECD-Fc
Format: binding
Procedure: To characterize the affinity of [^19F]GE-226[SEQ ID NO 1] to HER2 protein, Surface Plasmon Resonance studies were conducted. Human, rhesus and rat HER2-ECD-Fc (SINO Biological, Beijing, China, Cat. Nr: 10004-H02H, 90020-K02H, and 80079-R02H), as well as human HER2-ECD-Fc-6×His (R&D Systems, Minneapolis, Minn., Cat. Nr: 1129-ER) and p95HER2 ECD-Fc-6×His (Syngene, Cambridge, United Kingdom) were diluted with 50 mM sodium acetate pH 4.5 (Biacore (GE Healthcare, Buckinghamshire, UK) coupling buffer) to a final concentration of 10 μg/mL. Antigen coupling to Biacore sensor chip CMS (Cat. Nr: BR-1005-30) was done according to amine coupling protocol from the instrument manual […]. HBS-EP buffer (10 mM HEPES pH 7.4, 150 mM NaCl, 3 mM EDTA and 0.005% surfactant P20; GE Healthcare, Little Chalfont, United Kingdom, Cat. Nr: BR-1006-69) was used as running buffer and as solvent for the substances. The affinity studies were performed using a Biacore T100 (GE Healthcare). [^19F]GE-226 was diluted in HBS-EP buffer to 50 nM, 25 nM, 12.5 nM, 6.25 nM, 3.125 nM, 1.56 nM, 0.78 nM, 0.39 nM, 0.195 nM, 0.097 nM, 0.049 nM and 0 nM. The flow cells of the first chip comprised of blank, human HER2-ECD-Fc-6×His, p95HER2-ECD-Fc-6×His batch I and p95HER2-ECD-Fc-6×His batch II. The flow cells on the second chip contained blank, human HER2-ECD-Fc, rhesus HER2-ECD-Fc and rat HER2 ECD-Fc. […]

[^19F]GE-226: cold unlabeled non-radioactive 19F analogue of the tracer, used for SPR and blocking
Rmax: 138.1
